Results of single-concentration screens

Chains of the proteins cited; added tags and fusions are not shown. Residues count along the entry.
UniProt I6X8D2, whole entry: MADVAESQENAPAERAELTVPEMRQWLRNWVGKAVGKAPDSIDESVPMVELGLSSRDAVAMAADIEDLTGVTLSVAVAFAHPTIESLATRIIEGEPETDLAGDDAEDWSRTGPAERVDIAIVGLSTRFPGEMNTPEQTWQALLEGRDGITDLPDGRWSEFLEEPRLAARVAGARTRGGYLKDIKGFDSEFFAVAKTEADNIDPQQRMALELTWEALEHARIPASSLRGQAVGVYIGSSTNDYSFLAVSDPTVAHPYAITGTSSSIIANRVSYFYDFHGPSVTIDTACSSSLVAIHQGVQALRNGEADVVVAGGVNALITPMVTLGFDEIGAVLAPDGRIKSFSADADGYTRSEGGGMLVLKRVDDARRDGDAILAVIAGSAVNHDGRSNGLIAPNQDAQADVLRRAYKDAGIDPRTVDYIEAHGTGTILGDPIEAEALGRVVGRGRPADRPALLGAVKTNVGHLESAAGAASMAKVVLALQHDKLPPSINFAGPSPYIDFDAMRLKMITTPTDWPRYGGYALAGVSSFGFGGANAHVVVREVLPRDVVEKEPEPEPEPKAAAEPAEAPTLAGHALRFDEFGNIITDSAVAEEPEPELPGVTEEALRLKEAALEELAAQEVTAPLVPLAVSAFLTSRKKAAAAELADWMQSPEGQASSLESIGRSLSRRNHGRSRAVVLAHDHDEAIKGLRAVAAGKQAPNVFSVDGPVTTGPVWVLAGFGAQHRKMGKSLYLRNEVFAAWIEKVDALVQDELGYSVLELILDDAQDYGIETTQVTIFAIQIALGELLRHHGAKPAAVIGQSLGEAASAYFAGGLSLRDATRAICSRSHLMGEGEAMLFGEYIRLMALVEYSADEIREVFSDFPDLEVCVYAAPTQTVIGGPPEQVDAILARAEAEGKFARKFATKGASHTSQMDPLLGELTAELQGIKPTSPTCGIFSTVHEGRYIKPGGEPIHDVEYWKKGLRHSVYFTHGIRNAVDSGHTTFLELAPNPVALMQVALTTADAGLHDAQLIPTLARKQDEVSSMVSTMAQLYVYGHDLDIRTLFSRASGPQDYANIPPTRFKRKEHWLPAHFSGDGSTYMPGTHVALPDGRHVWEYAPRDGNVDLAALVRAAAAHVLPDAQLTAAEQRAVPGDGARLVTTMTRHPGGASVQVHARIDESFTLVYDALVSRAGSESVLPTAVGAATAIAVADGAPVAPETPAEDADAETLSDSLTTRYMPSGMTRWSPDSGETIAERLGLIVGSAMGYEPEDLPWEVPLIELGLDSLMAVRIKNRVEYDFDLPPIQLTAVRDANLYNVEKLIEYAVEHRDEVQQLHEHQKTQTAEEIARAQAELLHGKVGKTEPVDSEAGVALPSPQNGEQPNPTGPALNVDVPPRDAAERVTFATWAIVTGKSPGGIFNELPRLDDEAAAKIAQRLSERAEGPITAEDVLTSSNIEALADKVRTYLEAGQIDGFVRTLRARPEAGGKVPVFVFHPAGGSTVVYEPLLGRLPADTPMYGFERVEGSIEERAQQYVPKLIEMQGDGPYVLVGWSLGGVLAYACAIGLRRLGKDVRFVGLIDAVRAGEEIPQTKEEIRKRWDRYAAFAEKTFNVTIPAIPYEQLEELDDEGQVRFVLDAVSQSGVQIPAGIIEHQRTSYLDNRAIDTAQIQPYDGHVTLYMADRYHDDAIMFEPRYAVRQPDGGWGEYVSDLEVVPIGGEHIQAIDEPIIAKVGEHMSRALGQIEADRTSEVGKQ
UniProt Q4DA54, 1-478: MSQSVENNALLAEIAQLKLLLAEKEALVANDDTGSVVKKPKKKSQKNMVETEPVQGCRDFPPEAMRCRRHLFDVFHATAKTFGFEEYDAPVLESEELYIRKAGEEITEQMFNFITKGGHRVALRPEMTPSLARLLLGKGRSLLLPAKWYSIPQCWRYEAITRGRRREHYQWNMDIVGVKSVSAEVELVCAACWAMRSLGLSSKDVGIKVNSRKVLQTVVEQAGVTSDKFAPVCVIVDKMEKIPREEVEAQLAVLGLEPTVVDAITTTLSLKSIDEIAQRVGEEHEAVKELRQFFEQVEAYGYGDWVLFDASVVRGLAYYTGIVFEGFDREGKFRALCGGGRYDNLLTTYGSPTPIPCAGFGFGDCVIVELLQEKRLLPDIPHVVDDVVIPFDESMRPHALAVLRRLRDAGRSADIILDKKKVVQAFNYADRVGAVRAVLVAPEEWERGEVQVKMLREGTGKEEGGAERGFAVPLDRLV
UniProt P9WPC5, whole entry: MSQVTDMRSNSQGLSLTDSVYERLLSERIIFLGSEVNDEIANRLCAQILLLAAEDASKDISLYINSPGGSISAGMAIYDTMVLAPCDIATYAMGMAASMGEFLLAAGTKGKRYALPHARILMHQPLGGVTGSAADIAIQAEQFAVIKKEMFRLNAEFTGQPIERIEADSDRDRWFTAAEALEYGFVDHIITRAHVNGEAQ
UniProt P9WPC3, whole entry partner: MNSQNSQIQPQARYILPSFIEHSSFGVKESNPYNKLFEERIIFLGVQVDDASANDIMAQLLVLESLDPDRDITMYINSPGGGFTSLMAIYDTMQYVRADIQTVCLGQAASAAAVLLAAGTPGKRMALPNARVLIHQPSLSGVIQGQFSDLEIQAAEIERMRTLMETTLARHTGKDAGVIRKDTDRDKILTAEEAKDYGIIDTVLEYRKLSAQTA
UniProt A4I591, 1-473: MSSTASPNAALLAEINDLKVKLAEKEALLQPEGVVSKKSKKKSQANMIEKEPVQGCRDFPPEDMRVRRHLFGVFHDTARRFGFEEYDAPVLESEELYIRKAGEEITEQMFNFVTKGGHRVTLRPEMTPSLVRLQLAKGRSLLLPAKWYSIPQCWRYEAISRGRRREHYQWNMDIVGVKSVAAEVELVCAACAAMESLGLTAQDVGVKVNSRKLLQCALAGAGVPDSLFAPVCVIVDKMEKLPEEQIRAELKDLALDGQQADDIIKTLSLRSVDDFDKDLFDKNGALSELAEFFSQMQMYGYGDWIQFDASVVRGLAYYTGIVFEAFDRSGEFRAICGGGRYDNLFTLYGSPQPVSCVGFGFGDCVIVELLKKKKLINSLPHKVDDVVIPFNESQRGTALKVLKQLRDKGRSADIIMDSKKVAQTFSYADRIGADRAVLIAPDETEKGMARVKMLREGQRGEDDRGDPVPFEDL

From ChEMBL document CHEMBL3988442, “University of Dundee, Small-Polar-MMV Screening Library” (2021).

Pks13 thioesterase: 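Polyketide synthase Pks13, Mycobacterium tuberculosis (UniProt I6X8D2). Enzyme assay of the thioesterase domain of polyketide synthase 13; the read-out is not stated. Concentration: 30 µM. The record gives no direction; the compounds picked for IC50 retests had high values, so higher reads as stronger inhibition. Size under these conditions: about 67,000 compounds, about 300 of them at 50% or above in at least one test.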
TcHisRS: 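Enzyme assay of histidyl-tRNA synthetase; the read-out is not stated. Target: Histidine-tRNA ligase, Trypanosoma cruzi CL Brener (UniProt Q4DA54). Concentration: 30 µM. Higher reads as stronger inhibition (inferred: compounds with an IC50 in retests scored well above the rest). Size under these conditions: about 69,000 compounds, about 31 of them at 50% or above in at least one test.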
ClpP1P2: 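ClpP1P2, Mycobacterium tuberculosis (UniProt P9WPC5 and UniProt P9WPC3). Protease assay of ClpP1P2, read by the AMC dye that it sets free. Tested at 50 µM. Direction is inferred from only a few compounds that gave an IC50; most scored high, so higher reads as stronger inhibition. Most other retested compounds had strongly negative values. About 69,000 compounds were tested under these conditions; 0.015% (about 10) showed 50% or more at least once.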
Leishmania in macrophages: 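Cell assay of Leishmania donovani living inside macrophages; the read-out is not stated. Concentration: 30 µM. The record gives no direction; compounds that gave an IC50 in retests scored well above the rest, so higher reads as stronger inhibition. Of about 69,000 compounds tested this way, about 1,000 (1.5%) reached 50% or more in at least one test.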
LiHisRS: 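Enzyme assay of histidyl-tRNA synthetase; the read-out is not stated. Target: Histidine-tRNA ligase, Leishmania infantum (UniProt A4I591). Compounds at 30 µM. The record gives no direction; compounds that gave an IC50 in retests scored well above the rest, so higher reads as stronger inhibition. The assay is labelled LdHisRS but filed under L. infantum. Of about 69,000 compounds tested this way, about 410 (0.6%) reached 50% or more in at least one test.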

The filed quantity is “Percent Effect” (%). The controls that fix the scale are not given in the record; negative values are as filed. This is an unselected part of the compounds tested. Two or more numbers in one place are separate tests of the same structure; such repeats can differ widely. A dash means the value is not listed here; it may have been measured.

| SMILES | Pks13 thioesterase | TcHisRS | ClpP1P2 | Leishmania in macrophages | LiHisRS |
|---|---|---|---|---|---|
| `CC1CCC(O)(Cn2ncnc2-c2cccc(C#N)c2)CC1` (centres unmarked) | -21.3% | 5.357% | -1.156% | 11.99% | 20.43% |
| `O=C(NCc1cn2c(n1)CN(Cc1nccs1)CC2)C1CCC1.O=C(O)C(F)(F)F` | - | - | - | 15.9% | - |
| `O=C(NCc1cccnc1)C1=NOC2(CCN(C3CCOCC3)C2)C1` (centres unmarked) | -24.74% | 7.843% | 7.986% | -2.496% | 14.29% |
| `O=C(O)C(F)(F)F.c1cc(-c2ccc3c(c2)CCC32CCN(c3nncs3)CC2)ccn1` | - | - | - | 73.19% | - |
| `CCc1nn(C)c(Cl)c1CN1CCCC(c2cc(O)nc(C)n2)C1` (centres unmarked) | -27.15% | -0.5525% | 1.433% | 3.207% | 40.96% |
| `Cn1cnnc1S(=O)(=O)C1CCN(C(=O)c2cccs2)CC1` | 0.6571% | 4.444% | -5.964% | 32.83% | -0.8547% |
| `Cc1cc(C(F)(F)F)nn1CC(C)C(=O)Nc1ccncc1` (centres unmarked) | -30.93% | -3.825% | -0.2117% | 0.4311% | 1.942% |
| `Cc1ccc(CN(C(=O)c2cccc(NC(N)=O)c2)C2CC2)o1` | -38.42% | -2.564% | -2.026% | 21.74% | 9.524% |
| `Cn1cc(NS(=O)(=O)CCOc2ccc(F)cc2)cn1` | -5.374% | 8.247% | -4.257% | -13.3% | 10.34% |
| `O=C(c1ccn(-c2cccc(Cl)c2)n1)N1CCN(CCO)CC1` | 5.111% | 9.222% | -14.03% | 20.88% | 12.5% |
| `CNC(=O)c1cc2c(nc1NCC1CC1)CCN(CC1CC1)CC2.O=C(O)C(F)(F)F.O=C(O)C(F)(F)F` | - | - | - | 7.074% | - |
| `O=C(Cc1ccccn1)N1C[C@H]2CN(Cc3ccccn3)C[C@H]2C1` | -5.744% | 3.518% | 2.42% | - | 1.98% |
| `Cc1ncc2c(n1)CCN(Cc1ncc(C(C)(C)C)o1)C2` | -20.61% | 14.29% | 15.02% | 1.128% | 27.4% |
| `CCN1C(=O)[C@]2(CC[C@@H]3CN(S(=O)(=O)CC(C)C)C[C@@H]32)N=C1C` | -11.01% | 3.941% | -8.816% | - | 5.882% |
| `CSc1nc(C)cc(N2CCC(c3ncc[nH]3)CC2)n1` | -5.827% | -3.867% | -13.02% | 10.99% | 16.87% |
| `CN(C)S(=O)(=O)N1CC[C@]2(C[C@H](OCc3ccncc3)CO2)C1` | -28.25% | 4.598% | 3.16% | - | 16% |
| `Cc1noc(C)c1-c1cc(C2CCNCC2)ccn1` | 12.58% | 6.844% | -5.946% | 21.06% | 4.828% |
| `CCN1CC2(CCCCN2C(=O)c2ccsc2)CC1=O` (centres unmarked) | -24.48% | 5.288% | 10.98% | 22.42% | 19.27% |
| `COc1cc(CNCc2ccc(-n3nc(C)cc3C)nc2)cc(OC)c1` | -10.84% | 5.917% | -23.74% | 23.97% | 5.357% |
| `CC(C)(C)c1ncc(CNCC2CN(C3CC3)CCO2)s1` (centres unmarked) | -11.74% | 10% | -2.637% | 8.118% | 16.33% |
| `CCNC(=O)[C@@H]1C[C@H](NC(=O)c2cncnc2C)CN1CCCSC` | -11.42% | 0.8264% | -5.689% | 14.21% | 9.524% |
| `COc1c(CNCc2cccc(CS(C)(=O)=O)c2)c(C)nn1C` | -5.586% | 6.015% | 8.018% | 21.42% | 21.43% |
| `Cc1ncc2c(n1)CN(CCCc1nc3ccccc3o1)CC2` | 94.61% | 13.21% | -3.168% | 39.88% | 44.59% |
| `O=C(N1CCCC1)N1CCC(c2nccn2Cc2cscn2)CC1` | 6.957% | 2.513% | -1.39% | -2.776% | 0.8% |
| `Cc1cccn2c(NC(C)(C)C)c(C3CCN(C(=O)C4CC4)CC3)nc12` | 17.43% | 3.03% | -15.35% | 13.03% | 8.451% |
| `CCc1ncc2c(n1)CN(C(C(N)=O)c1ccccc1)CC2` (centres unmarked) | 1.944% | 18.23% | 2.574% | 27.75% | 32.39% |
| `Cc1nc(CN2CCCC(N(C)CC3CCCC3)C2)no1` (centres unmarked) | -2.306% | 7.018% | 5.4% | 48.76% | 18.18% |
| `Cc1cnn(CCNCCCOc2ccc(C#N)cc2)c1` | -21.19% | 5.759% | -3.667% | -23.26% | 3.448% |
| `CNc1cncc(C2CCCN2Cc2ccnc(N3CCCC3)n2)n1` (centres unmarked) | -1.097% | 8.791% | -8.268% | 6.967% and -10.57% | 27.54% |
| `Cc1cc(N(C)CC2COc3ccccc3O2)nc(C)n1` (centres unmarked) | 5.102% | 5.952% | -0.3004% | 59.02% | 17.05% |
| `O=C(O)C(F)(F)F.[H][C@@]12C[C@@H](C(=O)NC3CCC3)C[C@@]1([H])N(CC1CC1)CCO2` | - | - | - | -1.975% and 1.993% | - |
| `COCCN1C[C@H]2CN(C(=O)C3CC3)CCN2C1=O` | 5.75% | 12.87% | 5.635% | - | 11.11% |
| `Cc1nc(NC(=O)COCC(F)(F)F)ccc1Br` | -13.31% | -1.053% | -4.853% | -7.756% | 10.96% |
| `Cc1nc(-c2cccc(N3CCC(N4CCCC(C#N)C4)CC3)c2)cs1` (centres unmarked) | -7.854% | 5.063% | -10.26% | -18.36% | -6.25% |
| `[H][C@]12CC[C@@]3(N=C(CC)N(CC(C)C)C3=O)[C@@]1([H])CN(S(C)(=O)=O)C2` | - | - | - | 2.541% and 5.447% | - |
| `Cc1noc(C)c1C(C)NC(=O)N1CCC(NC(=O)c2ccsc2)CC1` (centres unmarked) | 4.356% | 0% | -5.85% | 9.83% | 8.333% |
| `O=C(O)C(F)(F)F.O=C(O)C(F)(F)F.[H][C@]12CC(=O)N(Cc3cccc(C)n3)[C@@]1([H])CCN2Cc1ccco1` | - | - | - | 11.86% | - |
| `COc1ccc(CCCC(=O)NCc2c(C)noc2C)cc1F` | 9.396% | 2.97% | -12.98% | 0.2518% | 20.65% |
| `Cn1nc(Br)c2c(NCCNc3ncccn3)ncnc21` | -2.634% | 8.696% | 6.311% | -2.922% | 20% |
| `NC(=O)C1CCCN(C(=O)c2ccn(-c3ccc(F)cc3)n2)C1` (centres unmarked) | -5.953% | 2.924% | -17.35% | 29.06% | 16.36% |
| `COc1cc(NC(=O)N2CCCC2c2nncn2C)ccc1Br` (centres unmarked) | -15.67% | 5.155% | -6.926% | 5.915% | 16.48% |
| `COc1ccccc1CN1CC[C@]2(C[C@H](OC)CO2)C1` | -21.73% | -4.918% | -0.3779% | - | 13.59% |
| `Cc1nc(NC(=O)NC2CC(=O)N(C)C2)nn1C` (centres unmarked) | -7.2% | -4.255% | 8.253% | -11.64% | 16.42% |
| `CC(C)S(=O)(=O)N1CCOC(CCc2ccccc2)C1` (centres unmarked) | -40% | 1.604% | -10.25% | 12.71% | 3.665% |
| `Cc1nc[nH]c1CNC1CC(=O)N(CCc2cccc(Cl)c2)C1` (centres unmarked) | -3.623% | -13.07% | -15.55% | -19.6% | 7.447% |
| `COc1c(C2CCCN2C(=O)c2ccoc2)c(C)nn1C` (centres unmarked) | -20.73% | 1.031% | 0.8889% | -0.7503% | 12.9% |
| `CC(=O)Nc1ncc(S(=O)(=O)Nc2cccc(C)c2)s1` | -3.499% | 8.696% | -12.36% | 11.84% | 13.79% |
| `Cc1[nH]c(=O)[nH]c(=O)c1CN1CCCC(CCc2ccc(F)c(F)c2)C1` (centres unmarked) | -41.42% | -2.326% | 7.448% | 5.939% | 19.67% |
| `Cc1c(CN2CCCC(c3[nH]ncc3S(C)(=O)=O)C2)cnn1C` (centres unmarked) | -31.74% | 1.075% | 11.6% | 14.87% | 20% |
| `c1ccc(CCN2CCn3cc(Cn4cccn4)nc3C2)cc1` | 9.888% | 7.317% | -16.4% | - | 33.33% |
| `Cc1nc(C)c(CN2CCC(N(C)Cc3noc(C4CC4)n3)C2)s1` (centres unmarked) | -34.4% | 8% | 4.892% | 42.95% | 13.46% |
| `CC(c1cccc(S(N)(=O)=O)c1)N(C)CCOc1ccccc1` (centres unmarked) | -5.675% | 5.703% | -4.275% | -6.125% | -9.375% |
| `Cc1ccc(-c2cnnc(NCC3(N4CCOCC4)CCCC3)n2)o1` | -7.602% | 1.807% | -3.686% | -1.547% | 10.99% |

For reference, 3 entries once more:

Cc1ccc(-c2cnnc(NCC3(N4CCOCC4)CCCC3)n2)o1 read Pks13 thioesterase: -7.602%; TcHisRS: 1.807%; ClpP1P2: -3.686%; Leishmania in macrophages: -1.547%; LiHisRS: 10.99%.
CC(c1cccc(S(N)(=O)=O)c1)N(C)CCOc1ccccc1 (centres unmarked) read Pks13 thioesterase: -5.675%; TcHisRS: 5.703%; ClpP1P2: -4.275%; Leishmania in macrophages: -6.125%; LiHisRS: -9.375%.
Cc1cc(C(F)(F)F)nn1CC(C)C(=O)Nc1ccncc1 (centres unmarked) read Pks13 thioesterase: -30.93%; TcHisRS: -3.825%; ClpP1P2: -0.2117%; Leishmania in macrophages: 0.4311%; LiHisRS: 1.942%.